Measurements as given in patent US20220324970A1.
Results are given in words; binding and its absence hold for the method and conditions named. Some binding calls cover weakened binding; strength is not graded here.

The chains behind the UniProt entries cited, without tags or fusion partners. Where a name states a change or a piece, a line headed by the entry shows the natural chain unless it says otherwise.
UniProt P01833: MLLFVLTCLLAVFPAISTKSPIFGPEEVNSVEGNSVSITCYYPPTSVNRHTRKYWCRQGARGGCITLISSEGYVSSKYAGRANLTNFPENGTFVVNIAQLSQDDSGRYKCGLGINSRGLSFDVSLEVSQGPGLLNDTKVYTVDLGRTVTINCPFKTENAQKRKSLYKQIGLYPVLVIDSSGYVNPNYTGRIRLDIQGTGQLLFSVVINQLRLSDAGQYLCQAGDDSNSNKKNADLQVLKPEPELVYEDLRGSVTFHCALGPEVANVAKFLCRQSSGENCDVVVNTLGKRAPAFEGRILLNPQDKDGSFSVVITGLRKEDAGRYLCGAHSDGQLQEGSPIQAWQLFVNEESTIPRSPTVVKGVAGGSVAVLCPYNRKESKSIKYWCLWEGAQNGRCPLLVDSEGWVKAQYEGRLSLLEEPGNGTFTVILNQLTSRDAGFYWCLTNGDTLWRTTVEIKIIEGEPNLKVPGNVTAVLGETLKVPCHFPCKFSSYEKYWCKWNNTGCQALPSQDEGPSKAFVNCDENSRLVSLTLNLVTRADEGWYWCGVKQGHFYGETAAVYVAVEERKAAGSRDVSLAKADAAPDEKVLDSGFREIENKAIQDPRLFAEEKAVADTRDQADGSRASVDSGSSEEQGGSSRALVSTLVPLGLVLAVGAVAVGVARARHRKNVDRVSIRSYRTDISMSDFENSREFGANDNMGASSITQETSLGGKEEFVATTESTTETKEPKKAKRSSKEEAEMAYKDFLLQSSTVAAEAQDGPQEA

Columns and labels:
[1] = target: recombinant dimeric IgA2 construct; test: BLI: hpIgR pre-complexed with VHH9 binding to immobilized IgA
[2] = target: recombinant dimeric IgA2 construct; test: BLI: hpIgR ECD pre-complexed with VHH9-mono-Fc over immobilized dIgA2
[3] = target: recombinant dimeric IgA2 construct; test: BLI: hpIgR pre-complexed with VHH10 binding to immobilized IgA
[4] = target: recombinant dimeric IgA2 construct; test: BLI: hpIgR pre-complexed with VHH4 binding to immobilized IgA
[5] = target: recombinant dimeric IgA2 construct; test: BLI: hpIgR ECD alone over immobilized dIgA2 (amine-reactive sensor), 2:1 fit
[6] = target: recombinant dimeric IgA2 construct; test: BLI: hpIgR pre-complexed with VHH5 binding to immobilized IgA
[7] = target: recombinant dimeric IgA2 construct; test: BLI: hpIgR pre-complexed with VHH11 binding to immobilized IgA
[8] = target: recombinant dimeric IgA2 construct; test: BLI: hpIgR ECD pre-complexed with VHH2-mono-Fc over immobilized dIgA2
[9] = target: recombinant dimeric IgA2 construct; test: BLI: hpIgR ECD pre-complexed with VHH10-mono-Fc over immobilized dIgA2
[10] = target: recombinant dimeric IgA2 construct; test: BLI: hpIgR pre-complexed with VHH6 binding to immobilized IgA
[11] = target: recombinant dimeric IgA2 construct; test: BLI: hpIgR pre-complexed with VHH3 binding to immobilized IgA
[12] = target: recombinant dimeric IgA2 construct; test: BLI: hpIgR pre-complexed with VHH12 binding to immobilized IgA
[13] = target: recombinant dimeric IgA2 construct; test: BLI: hpIgR ECD pre-complexed with VHH5-mono-Fc over immobilized dIgA2
[14] = target: recombinant dimeric IgA2 construct; test: BLI: hpIgR ECD pre-complexed with VHH12-mono-Fc over immobilized dIgA2
[15] = target: recombinant dimeric IgA2 construct; test: BLI: hpIgR ECD pre-complexed with VHH6-mono-Fc over immobilized dIgA2
[16] = target: recombinant dimeric IgA2 construct; test: BLI: hpIgR ECD pre-complexed with VHH3-mono-Fc over immobilized dIgA2
[17] = target: recombinant dimeric IgA2 construct; test: BLI: hpIgR ECD pre-complexed with VHH7-mono-Fc over immobilized dIgA2
[18] = target: recombinant dimeric IgA2 construct; test: BLI: hpIgR alone binding to immobilized IgA
[19] = target: recombinant dimeric IgA2 construct; test: BLI: hpIgR ECD pre-complexed with VHH11-mono-Fc over immobilized dIgA2
[20] = target: recombinant dimeric IgA2 construct; test: BLI: hpIgR ECD pre-complexed with VHH4-mono-Fc over immobilized dIgA2
[21] = target: recombinant dimeric IgA2 construct; test: BLI: hpIgR pre-complexed with VHH2 binding to immobilized IgA
[22] = target: recombinant dimeric IgA2 construct; test: BLI: hpIgR pre-complexed with VHH7 binding to immobilized IgA

Measured: binding

human pIgR extracellular domain (ECD) (from UniProt P01833 19-638) (receptor)
binds: [1] | [2] | [3] | [4] | [5] | [6] | [7] | [8] | [9] | [10] | [11] | [12] | [13] | [14] | [15] | [16] | [17] | [18] | [19] | [20] | [21] | [22]
